Measurements from patent US8846616B1, “Alpha-melanocyte stimulating hormone as topical anti-inflammatory agent for the treatment of allergic contact dermatitis and eczema” (Florida Agricultural and Mechanical University, priority 2009, dated 2014).
At least one structure is not confirmed: it was looked up by name or label, or the drawing left a doubt.

System: DNFB-induced allergic contact dermatitis
Assay: Murine allergic contact dermatitis (ACD) model, ear swelling by micrometer
Assay type: in vivo, mouse
Details: topical treatment 24 to 96 hours after DNFB challenge, twice daily; FIG. 3
Experimental: Allergic contact dermatitis was induced as previously described (8, 16). Mice were sensitized on day 0 by applying 25 μL of 0.5% DNFB in 4:1 acetone/olive oil on the shaved abdomen. Mice were challenged on day 5 with a single topical application of 15 μL of 0.2% DNFB in 4:1 acetone/olive oil on the right ear in order to induce an ACD response. The left ears were treated with a single topical application of the matched vehicle alone (4:1 acetone/olive oil) to serve as an internal control for the experiments. Beginning on day 6 (24 hours after challenge), the right ears were treated with 15 μL of topically applied α-MSH formulations or 0.5 mM dexamethasone solution and the left ears of the same mice were topically applied with the corresponding matched vehicle. […] Commercial ointment products were topically applied 20 μL per treatment as measured with a syringe and spread evenly with an applicator stick. […] The ACD response was determined by the degree of ear swelling of the hapten-exposed ear (right) compared to that of the matched vehicle-treated contra-lateral ear (left) before DNFB challenge and at 24, 48, 72, and 96 hours after challenge, as measured with a micrometer (7309, Mitutoyo, Tokyo, Japan). Percent change was determined based on 100% thickness 24 hours after challenge. […]

With `C[C@@H]1C[C@H]2[C@@H]3CCC4=CC(=O)C=C[C@]4(C)[C@@]3(F)[C@@H](O)C[C@]2(C)[C@@]1(O)C(=O)CO` [dexamethasone, Dexamethasone, reference compound] as the molecule, how does the “ear inflammation (ear swelling) over time” value read?
Its value is “rapid and sustained inhibition of ear inflammation”.
